Values from PubChem BioAssay AID1671195 (Yale University, 2021).
Here is an unselected part of about 22,000 reagents tested. In the full data, about 1,510 (6.9%) were called active. 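Active includes knockdowns raising or lowering LDL uptake; positive z-scores mean more uptake, negative mean less.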 A number with no mark means an inactive call. No sequences are given here.

Test: 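Genes whose knockdown alters LDL uptake in liver cancer cells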 (primary screen)
Cell system: human Huh7 hepatoma cells
Knock-down reagent: siRNA pool against human genes, 18 nM
Time to read-out: about 2 to 2.5 days of knockdown, then 8 h LDL uptake
Conditions: DiI-labelled LDL at 30 µg/ml for 8 h, in lipoprotein-deficient serum medium
Read-out: 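Fluorescent LDL signal imaged in cells, scaled to the plate median, robust z-score for each replicate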
Scale: robust z-score: higher = more LDL uptake after knockdown
Active means: 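Active when two or more replicates show a robust z-score above 2 or below -2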

gene knocked down | PubChem SID | robust z-score, replicate 1 | robust z-score, replicate 2 | robust z-score, replicate 3
RGS16 | SID442887270 | 1.07 | 0.7 | 1.08
RGS9BP | SID442891485 | -0.382 | 0.276 | 0.948
VASP | SID442898780 | -0.705 | 0.0369 | -0.944
ZNF263 | SID442885590 | 1.07 | 1.25 | 2.04
CCDC32 | SID442898342 | -0.334 | -0.333 | -0.797
SS18 | SID442885249 | 2.14 | 1.5 | 1.17
C19orf18 | SID442886133 | 4.07 | -0.269 | -0.0309
TOMM70 | SID442883194 | 3.83 (active) | 4.21 | 4.05
PLA2G12B | SID442904143 | -1.13 | -1.54 | -1.85
MOCS2 | SID442902177 | -1.27 | -0.974 | -0.829
HPDL | SID442899799 | -0.383 | -0.588 | -1.04
WNT8B | SID442891481 | 0.726 | 0.455 | -0.338
HOXC4 | SID442896417 | 0.312 | -0.744 | -0.379
MYLIP | SID442891002 | -0.298 | 1.66 | -0.335
TBC1D5 | SID442897986 | -0.763 | -1.06 | 0.48
OR5AK2 | SID442899635 | -0.571 | -0.476 | -0.898
NGB | SID442895335 | -0.289 | -0.196 | 0.00773
ZNF331 | SID442886967 | 0.827 | 1.04 | 1.19
IL6ST-DT | SID442888631 | 0.695 | 0.445 | 0.922
LRRIQ3 | SID442893086 | 0.0931 | -0.147 | 0.323
ITSN2 | SID442900426 | -0.876 | -0.127 | -1.27
DIP2C-AS1 | SID442890770 | 0.498 | 0.418 | 0.195
SFXN4 | SID442887588 | 0.822 | 0.84 | 0.979
HJURP | SID442899497 | -0.684 | -0.845 | -0.356
MYC | SID442892674 | 0.327 | 0.41 | -0.323
SERPINE1 | SID442892885 | -0.826 | -0.166 | 1.33
SLC29A3 | SID442903994 | -1.35 | -1.71 | -1.31
CLEC4M | SID442903762 | -1.38 | -0.508 | -2.26
